# Data published in the supplement of paper PMC5393889.
# The list shows a part of the results.
# Test system: Caenorhabditis elegans N2
# Assay: aldicarb interaction hit call (worm growth perturbed in combination with 10 uM aldicarb in both replicates, no effect as single agent) (binary (1 = interacts)); higher = interacts with aldicarb (growth perturbed)
# Settings: first compound 1.5 µM; aldicarb concentration 10 µM; 6 days; 20 °C
row,SMILES,aldicarb interaction hit call
1,CCc1ccc2oc(-c3ccc(C)c(N)c3)nc2c1 [wact-57] + CNC(=O)O/N=C/C(C)(C)SC [aldicarb],inactive: 0
2,CN(C)CCCOc1ccc(-c2ccccc2)cc1.Cl [wact-152] + CNC(=O)O/N=C/C(C)(C)SC [aldicarb],inactive: 0
3,O=C(NCCCCc1ccccc1)c1cccc(Br)c1 [wact-399] + CNC(=O)O/N=C/C(C)(C)SC [aldicarb],inactive: 0
4,O=C1/C(=C/c2ccc(-c3cccc(Cl)c3)o2)SC(=S)N1C1CCS(=O)(=O)C1 (stereo unspecified) [wact-367] + CNC(=O)O/N=C/C(C)(C)SC [aldicarb],inactive: 0
5,CNCc1ccc(OCc2ccc(Cl)cc2)cc1.Cl [wact-164] + CNC(=O)O/N=C/C(C)(C)SC [aldicarb],inactive: 0
6,Clc1ccc(OCCN2CCNCC2)c(Cl)c1.O=C(O)C(=O)O [wact-75] + CNC(=O)O/N=C/C(C)(C)SC [aldicarb],inactive: 0
7,Cc1nc(NC(=O)c2cccs2)ccc1Br [wact-516] + CNC(=O)O/N=C/C(C)(C)SC [aldicarb],inactive: 0
8,C#CCOc1ccc(-c2nc(-c3cccnc3)no2)cc1 [wact-355] + CNC(=O)O/N=C/C(C)(C)SC [aldicarb],inactive: 0
9,CC(NC(=O)c1nc(-c2ccc(F)cc2)no1)c1ccccc1 (stereo unspecified) [wact-582] + CNC(=O)O/N=C/C(C)(C)SC [aldicarb],inactive: 0
10,COc1ccc(OC)c(CN(C)CC2CCN(CCc3cccc(F)c3)CC2)c1 [wact-326] + CNC(=O)O/N=C/C(C)(C)SC [aldicarb],inactive: 0
11,Clc1ccc(Cl)c(-c2nc(-c3ccccn3)no2)c1 [wact-507] + CNC(=O)O/N=C/C(C)(C)SC [aldicarb],inactive: 0
